No constants are given. Whether binding was seen depends on the method and setting. Some entries that bind do so weakly or less than the wild type.

The chains behind the UniProt entries cited, without tags or fusion partners.
UniProt P49841: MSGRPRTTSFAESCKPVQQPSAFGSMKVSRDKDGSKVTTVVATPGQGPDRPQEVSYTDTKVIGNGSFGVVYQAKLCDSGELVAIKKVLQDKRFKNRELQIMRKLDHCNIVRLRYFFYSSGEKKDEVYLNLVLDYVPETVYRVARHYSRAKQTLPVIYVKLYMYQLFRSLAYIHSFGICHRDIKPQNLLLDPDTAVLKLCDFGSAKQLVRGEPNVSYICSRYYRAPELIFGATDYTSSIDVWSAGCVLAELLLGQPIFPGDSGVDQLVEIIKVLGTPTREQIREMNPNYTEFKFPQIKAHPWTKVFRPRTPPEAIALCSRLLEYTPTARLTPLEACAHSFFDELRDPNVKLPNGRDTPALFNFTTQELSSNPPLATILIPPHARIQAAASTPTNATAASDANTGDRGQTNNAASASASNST

The test addresses H-Ras wild type (full-length human H-Ras in pcDNA-3.1-myc, expressed in HEK293 cells) (human) (UniProt P01112). Description: IP and immunoblot from transfected HEK293 cells. (In western blotting, separated proteins are transferred to a membrane and probed.)

On to “Gsk3β (expressed from pcDNA3.1-Gsk3β-V5 in HEK293 cells) (from UniProt P49841 1-420) (enzyme)”, for which the binding result is “binds”.

For the origin of these results see patent US20150309029A1, “Methods for Cancer Diagnosis, Anti-Cancer Drug Screening, and Test of Drug Effectiveness on the Basis of Phoshorylation of Ras at Thr-144 and Thr-148” (Industry-Academic Cooperation Foundation, Yonsei University, priority 2010, published 2015).
